The values below come from the supplement of paper PMC10735217.

Some of the results follow. Single values are uncertain here, since repeats match poorly.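 The human kidney-derived cells carry a stably integrated construct of eight TEAD-binding elements driving luciferase, read by luminescence in a drug-repurposing library screen. A compound counts as a hit when its signal is more than five robust Z scores above the plate mean.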

The assay relates to HEK293A TEAD-LUC reporter. The assay is described as follows: TEAD-luciferase reporter activity (YAP activation), robust Z score vs plate; higher = stronger YAP/TEAD activation. Particulars: 24 h. Background: A reporter such as luciferase makes a cellular process visible.

Regarding `CCC1Cn2cc([N+](=O)[O-])nc2O1` (configuration not stated), the TEAD-luciferase reporter activity was inactive: -1.32 (compound concentration: 200 nM), inactive: -0.785 (compound concentration: 2 uM) and inactive: -0.473 (compound concentration: 10 uM).

Consider `CC(NN)c1ccccc1` (configuration not stated), for which the TEAD-luciferase reporter activity is inactive: -1.38 (compound concentration: 200 nM), inactive: -1.01 (compound concentration: 2 uM) and inactive: -0.267 (compound concentration: 10 uM).

As to `O=C1CCc2cc(C3=NNC(=O)SC3)ccc2N1`, the TEAD-luciferase reporter activity by setting is: (compound concentration: 200 nM) inactive: -0.793; (compound concentration: 2 uM) inactive: 1.93; (compound concentration: 10 uM) inactive: 2.58.

For the compound `Cc1[nH]c(=O)c(C#N)cc1-c1ccncc1` [milri], the TEAD-luciferase reporter activity was inactive: 1.01 (compound concentration: 200 nM), inactive: -0.623 (compound concentration: 2 uM) and inactive: 0.52 (compound concentration: 10 uM).

As for `Cc1c(NCCN2CCCC2)cc(Cl)cc1N1CCN(c2ncnc3[nH]nc(Br)c23)CC1`, the TEAD-luciferase reporter activity by setting is: (compound concentration: 200 nM) inactive: 1.08; (compound concentration: 2 uM) inactive: 0.703; (compound concentration: 10 uM) inactive: -0.733.

Regarding `CCN1CCc2c3n(c4ccccc24)C(C(=O)OC)=CCC31` (configuration not stated), the TEAD-luciferase reporter activity was inactive: -0.688 (compound concentration: 200 nM), inactive: -0.802 (compound concentration: 2 uM) and inactive: -0.103 (compound concentration: 10 uM).

For `CCC(=O)O[C@]1(C(C)=O)CC[C@H]2[C@@H]3CCC4=CC(=O)C=CC4(C)[C@H]3[C@@H](O)CC21C` (some centres not stated), the TEAD-luciferase reporter activity runs as follows: (compound concentration: 200 nM) inactive: -2.47; (compound concentration: 2 uM) inactive: -0.286; (compound concentration: 10 uM) inactive: 0.914.

For `O=C1c2ccccc2C(=O)N1CCN1CCC(c2noc3cc(F)ccc23)CC1`, the TEAD-luciferase reporter activity is inactive: 0.773 (compound concentration: 200 nM), inactive: -0.36 (compound concentration: 2 uM) and inactive: 0.184 (compound concentration: 10 uM).

Turning to `CNC(CC(C)C)C(=O)NC1C(=O)NC(CC(N)=O)C(=O)NC2C(=O)NC3C(=O)NC(C(=O)NC(C(=O)O)c4cc(O)cc(O)c4-c4cc3ccc4O)C(O[C@H]3C[C@](C)(N)[C@@H](O)[C@@H](C)O3)c3ccc(cc3)Oc3cc2cc(c3O[C@@H]2O[C@@H](CO)[C@H](O)[C@@H](O)[C@@H]2O[C@H]2C[C@](C)(N)[C@@H](O)[C@@H](C)O2)Oc2ccc(cc2Cl)C1O` (some centres not stated) [Eremomycin], the TEAD-luciferase reporter activity (compound concentration: 200 nM) was inactive: 0.451, the TEAD-luciferase reporter activity (compound concentration: 2 uM) was inactive: 0.489 and the TEAD-luciferase reporter activity (compound concentration: 10 uM) is inactive: -0.666.

On to `C=C[C@@]1(C)CC(=O)[C@]2(O)[C@@]3(C)[C@@H](O)CCC(C)(C)[C@@H]3[C@H](O)[C@H](OC(C)=O)[C@@]2(C)O1` [Colforsin], for which the TEAD-luciferase reporter activity was inactive: -2.19 (compound concentration: 200 nM), inactive: -1.18 (compound concentration: 2 uM) and inactive: -0.851 (compound concentration: 10 uM).

For the compound `O=C([O-])CCC(=O)OCC(NC(=O)C(Cl)Cl)C(O)c1ccc([N+](=O)[O-])cc1` (configuration not stated), the TEAD-luciferase reporter activity is inactive: 3.85 (compound concentration: 200 nM), inactive: -1.71 (compound concentration: 2 uM) and inactive: 2.1 (compound concentration: 10 uM).

Consider `CCC1(CC)O[C@@H]2C[C@H]3[C@@H]4CCC5=CC(=O)C=CC5(C)[C@@]4(F)[C@@H](O)CC3(C)C2(C(=O)CO)O1` (some centres not stated), for which the TEAD-luciferase reporter activity reads like this: (compound concentration: 200 nM) inactive: 0.534; (compound concentration: 2 uM) inactive: -0.607; (compound concentration: 10 uM) inactive: -0.905.

`CC(CCc1ccc(C(N)=O)cc1)NCC(O)c1ccc(O)c(O)c1` (configuration not stated): the TEAD-luciferase reporter activity (compound concentration: 200 nM) is inactive: 0.996, the TEAD-luciferase reporter activity (compound concentration: 2 uM) was inactive: -0.895 and the TEAD-luciferase reporter activity (compound concentration: 10 uM) is inactive: -0.519.

As to `CCOC(=O)C(C)c1ccc2cc(OC)ccc2c1` (configuration not stated), the TEAD-luciferase reporter activity is, setting by setting: (compound concentration: 200 nM) inactive: 1.02; (compound concentration: 2 uM) inactive: 0.149; (compound concentration: 10 uM) inactive: 0.567.

On to `O=C(O)Cc1ccc2occc2c1`, for which the TEAD-luciferase reporter activity (compound concentration: 200 nM) was inactive: 4.56, the TEAD-luciferase reporter activity (compound concentration: 2 uM) was inactive: -1.54 and the TEAD-luciferase reporter activity (compound concentration: 10 uM) is inactive: 2.5.

Consider `C[C@H]1C[C@@H]2[C@H]([C@@H](O)C[C@@]3(C)[C@H]2CC[C@]3(O)C(=O)CO)[C@@]2(C)C=CC(=O)C=C12`, for which the TEAD-luciferase reporter activity was inactive: 0.384 (compound concentration: 200 nM) and inactive: 2.38 (compound concentration: 10 uM).

Turning to `C[C@H]1C[C@@H]2[C@H]([C@@H](O)C[C@@]3(C)[C@H]2CC[C@]3(O)C(=O)CO)[C@@]2(C)C=CC(=O)C=C12` [Methylprednisolone], the TEAD-luciferase reporter activity (compound concentration: 2 uM) was inactive: 0.619.

For `CC(C)(O)CC[C@H](C[C@H](O)[C@H](Cc1cccc(F)c1)NC(=O)c1cnc2ccccc2n1)C(N)=O`, the TEAD-luciferase reporter activity by setting is: (compound concentration: 200 nM) active: 7.96; (compound concentration: 2 uM) inactive: -0.0563; (compound concentration: 10 uM) inactive: -0.865.

For the compound `CCCNCC(O)c1oc2ccccc2c1CCc1ccccc1` (configuration not stated), the TEAD-luciferase reporter activity runs as follows: (compound concentration: 200 nM) inactive: -0.711; (compound concentration: 2 uM) inactive: 2.26; (compound concentration: 10 uM) inactive: 1.42.

As for `CC(C)S(=O)(=O)N[C@@H]1COC[C@@H]1Oc1ccc(-c2ccc(C#N)s2)cc1`, the TEAD-luciferase reporter activity is, setting by setting: (compound concentration: 200 nM) inactive: -0.988; (compound concentration: 2 uM) inactive: 1.59; (compound concentration: 10 uM) inactive: 1.63.

Take `COc1cc(C)c(/C=C/C(C)=C/C=C/C(C)=C/C(=O)O)c(C)c1C` [acitretin]: the TEAD-luciferase reporter activity (compound concentration: 2 uM) was inactive: -1.41.

Turning to `COc1cc(C)c(/C=C/C(C)=C/C=C/C(C)=C/C(=O)O)c(C)c1C`, the TEAD-luciferase reporter activity is inactive: -0.39 (compound concentration: 200 nM) and inactive: -1.71 (compound concentration: 10 uM).

On to `N#Cc1cc(Cl)cc(Oc2cc(OCc3n[nH]c4nc(N)ccc34)ccc2Cl)c1`, for which the TEAD-luciferase reporter activity is, setting by setting: (compound concentration: 200 nM) inactive: 1.38; (compound concentration: 2 uM) inactive: -2.02; (compound concentration: 10 uM) inactive: 0.623.

As for `Cn1ccc2c1C(O)CCN(CCCN1CCN(c3ccc(F)cc3)CC1)C2=O` (configuration not stated), the TEAD-luciferase reporter activity reads like this: (compound concentration: 200 nM) inactive: -0.837; (compound concentration: 2 uM) inactive: 1.25; (compound concentration: 10 uM) inactive: -0.431.

As to `CNC(=O)N(N(CCCl)S(C)(=O)=O)S(C)(=O)=O` [laromustine], the TEAD-luciferase reporter activity was inactive: -0.788 (compound concentration: 200 nM), inactive: -1.19 (compound concentration: 2 uM) and inactive: -1.16 (compound concentration: 10 uM).

Take `CCC(NC(C)C)C(O)c1ccc(O)c2nc(O)ccc12` (configuration not stated) [procaterol, Innovata]: the TEAD-luciferase reporter activity is inactive: -1.78 (compound concentration: 200 nM) and inactive: 1.34 (compound concentration: 10 uM).

On to `CCC(NC(C)C)C(O)c1ccc(O)c2nc(O)ccc12` (configuration not stated) [procaterol], for which the TEAD-luciferase reporter activity (compound concentration: 2 uM) is inactive: -0.844.
